Data as given in publication doi:10.1101/2023.09.21.558844.

B1: Spt6 (protein, UniProt P23615 1-1451)
chain: MEETGDSKLVPRDEEEIVNDNDETKAPSEEEEGEDVFDSSEEDEDIDEDEDEARKVQEGFIVNDDDENEDPGTSISKKRRKHKRREREEDDRLSEDDLDLLMENAGVERTKASSSSGKFKRLKRVGDEGNAAESESDNVAASRQDSTSKLEDFFSEDEEEEESGLRNGRNNEYGRDEEDHENRNRTADKGGILDELDDFIEDDEFSDEDDETRQRRIQEKKLLREQSIKQPTQITGLSSDKIDEMYDIFGDGHDYDWALEIENEELENGNDNNEAEEEEIDEETGAIKSTKKKISLQDIYDLEDLKKNLMTEGDMKIRKTDIPERYQELRAGITDYGNMSSEDQELERNWIAEKISVDKNFDANYDLTEFKEAIGNAIKFITKENLEVPFIYAYRRNYISSREKDGFLLTEDDLWDIVSLDIEFHSLVNKKDYVQRFYAELHIDDPIVTEYFKNQNTASIAELNSLQDIYDYLEFKYANEINEMFINHTGKTGKKHLKNSSYEKFKASPLYQAVSDIGISAEDVGENISSQHQIHPPVDHPSSKPVEVIESILNANSGDLQVFTSNTKLAIDTVQKYYSLELSKNTKIREKVRSDFSKYYLADVVLTAKGKKEIQKGSLYEDIKYAINRTPMHFRRDPDVFLKMVEAESLNLLSVKLHMSSQAQYIEHLFQIALETTNTSDIAIEWNNFRKLAFNQAMDKIFQDISQEVKDNLTKNCQKLVAKTVRHKFMTKLDQAPFIPNVRDPKIPKILSLTCGQGRFGADAIIAVYVNRKGDFIRDYKIVDNPFDKTNPEKFEDTLDNIIQSCQPNAIGINGPNPKTQKFYKRLQEVLHKKQIVDSRGHTIPIIYVEDEVAIRYQNSERAAQEFPNKPPLVKYCIALARYMHSPLLEYANLTSEEVRSLSIHPHQNLLSSEQLSWALETAFVDIVNLVSVEVNKATDNNYYASALKYISGFGKRKAIDFLQSLQRLNEPLLARQQLITHNILHKTIFMNSAGFLYISWNEKRQKYEDLEHDQLDSTRIHPEDYHLATKVAADALEYDPDTIAEKEEQGTMSEFIELLREDPDRRAKLESLNLESYAEELEKNTGLRKLNNLNTIVLELLDGFEELRNDFHPLQGDEIFQSLTGESEKTFFKGSIIPVRVERFWHNDIICTTNSEVECVVNAQRHAGAQLRRPANEIYEIGKTYPAKVIYIDYANITAEVSLLDHDVKQQYVPISYSKDPSIWDLKQELEDAEEERKLMMAEARAKRTHRVINHPYYFPFNGRQAEDYLRSKERGEFVIRQSSRGDDHLVITWKLDKDLFQHIDIQELEKENPLALGKVLIVDNQKYNDLDQIIVEYLQNKVRLLNEMTSSEKFKSGTKKDVVKFIEDYSRVNPNKSVYYFSLNHDNPGWFYLMFKINANSKLYTWNVKLTNTGYFLVNYNYPSVIQLCNGFKTLLKSNSSKNRMNNYR
B2: Tod6 (protein, UniProt P34219 1-525)
chain: MTLPKLSSVSVSSGHVSANSHGFSILSKHPHPNNLVHSHSLSHTNAKSHLPISSTSTKENSTNKEEAESLKKNNPSSWDPSDDIKLRHLKEIKNLGWKEIAHHFPNRTPNACQFRWRRLKSGNLKSNKTAVIDINKLFGVYATGDATPSAGTPSAEEAVKEEAVEDEDITAGSSAIEDSPPDFKPLVKPKYMDRKLITQRSTSTFSDHEPQHTKPRKLFVKPRSFSHSITTNTPNVKTAQQTNLSLYNTTSAKTNKAVNSNDYENIGLVPKIIIRSRRNSFIPSTQIPHSTTKTRKNSHSVISSRRSSFNMMHSRRSSFNSHAPTEPISRRASLVVSPYMSPRRLSTSQSVHYHPQHQYYLNPIASPNCKTDHANDKITHTRTFLDMQKFANKHPWSREDDEVLLNNTKDKQNHLSPLEISIVLPNNRSELEIQQRMDYLKRKGRVSGFHTNEGCKDEEEEDDIDPLHKENGINTPSQQSQNYGMLEAKHDNPKSSELSSMTSANDIRNEQDELPGINSIFKNIF
B3: Rxt2 (protein, UniProt P38255 1-430)
chain: MTIRSSMKNNAELESKSVLANESNIISTFTRRIIKEKSGNYQVLKRSLDGKLIYPEATGISSNRGNKLLQRSEVVTRRDLNNSKPMIEQTVFYNGSEHRLLQTNIVTDSRRKRIKFTPDINVEPVLVGDENDIDGSEKEDENITDEYYGEEDDDDLSKLVNVKEILTPILSLGDIINHKTISRTFSSPILKNLALQIILMIEKEQMSVVRYSQFLEVFLGDHPEPIYESNLNLPSYNHNLTLPEDRGASDEDDINNKNNINEVNSNSLSTEAGHINNGMEEFGEEDPFFALPRLEQSNALLSLLPSSSGSASISTLTAAEQQQLNEEIESARQLSQIALQRNKEFIRNLQKIRKSVIKANRIRGRILNWSREYLGISDDDITIPVALRVVKRGLISATTNKTTNFEEEIENTMEDGVVDDNEPDEEANRA
B4: Tea1, Ty1 enhancer activator I (protein, UniProt P47988 1-759)
chain: MTAPLWPNKNEKNHTVKRALSTDMTSNILSSTNASSNEENSRSSSAANVRSGTGANTLTNGGSTRKRLACTNCRNRRKKCDLGFPCGNCSRLELVCNVNDEDLRKKRYTNKYVKSLESHIAQLETNLKNLVQKIYPDDEQILNRMMVGDVLSALPDSSQVSINYTDQTPSLPIPATRGTFIIENDKVSQPLSSFNQQTEPSTLNSGIFNTQKQNFEESLDDQLLLRRSLTPQGEKKKKPLVKGSLYPEGPVSYKRKHPVKSDSLLPVSSLTAATDPSTFSDGITAGNSVLVNGELKKRISDLKTTVIVRGLNDDNPNSINNDPRILKSLSNFYKWLYPGYFIFVHRESFLYGFFNHSKNNYEDSSYCSVELIYAMCAVGSRLTPDLQEYSEVYYQRSKKTLLQLVFDEQSTARITTVQALFCLAFYELGKGNNQLGWYFSGLAIRVGYDMGFQLDPKVWYVDDNNLQLTQSELEIRSRIYWGCYIADHFICLMLGRTSTLSVSNSTMPESDELPEVNGTEEFRFIGRHVLQISLPLKNLIILSRLVQIFTSKIFIESEDIARKLKYLNTFNSQVYNWRQSLPEFLQWSKTLIENDDVSTDPTISYFWYCYYIVRLTFNKPFIEDSQESETVVIEIIDDLKTLLDNFGKKFGNYTKGNLYQLYSCLLAINCLKKLKEIRSSEQDSWNAQLDFFNHIFYTQLYPAYDLPKKLQEDTELETEQENQMLNQVGNINYTHDFSLSHEIDDLIRELFGVGTPQKL
B5: Cti6 (protein, UniProt Q08923 1-506)
chain: MESTAIVPKGPVVGSEDMEKAEVIASGSTDIISTTSTATTTAAIGSVQEESVKQEDVPMEGGEGEVEEEEGETRCICGELDTPDDSGFFIQCEQCSSWQHGYCVSITQDNAPDKYWCEQCRPELHQLFTTDTGEARSIYKPVQEKRRQSRRKARSAAASKSHAANEAEKSPRNTSNTDDNVDDIGDEEDEVEDEASAVALAKDGNTRSSRRRRRNSMDDASTDQYSLDPGDSDKKLLDRKRATFMAREEKQYQRMLEKALKESRRTSHQEDPESYENDADIYQGDTDNHNGTTRLQTDVMLTEGKPDSVTNDDMKESLRPSKEQSMEKTNDVEKEASQEKESSTGSAQDTEKTDEPILPLTSISSSEDDSRKASSRGSKRVSKPARKGNRTRRSNTSSDTNQNRRSADIGTDKPVKPRLPPQRTSLNEMRRRVSAILEFISRTQWELSEDQSDREEFVRFVENQHFVEKVDTIYNGYNESLSMMDDLTRELLLWEKKYSNNTNAIQ
B6: Dep1 (protein, UniProt P31385 1-405)
chain: MSQQTPQESEQTTAKEQDLDQESVLSNIDFNTDLNHNLNLSEYCISSDAGTEKMDSDEEKSLANLPELKYAPKLSSLVKQETLTESLKRPHEDEKEAIDEAKKMKVPGENEDESKEEEKSQELEEAIDSKEKSTDARDEQGDEGDNEEENNEEDNENENEHTAPPALVMPSPIEMEEQRMTALKEITDIEYKFAQLRQKLYDNQLVRLQTELQMCLEGSHPELQVYYSKIAAIRDYKLHRAYQRQKYELSCINTETIATRTFIHQDFHKKVTDLRARLLNRTTQTWYDINKERRDMDIVIPDVNYHVPIKLDNKTLSCITGYASAAQLCYPGEPVAEDLACESIEYRYRANPVDKLEVIVDRMRLNNEISDLEGLRKYFHSFPGAPELNPLRDSEINDDFHQWAQ

Target: T1, Ume6 tagged at the carboxy terminus with TurboID (TurboID-3xMyc) (S. cerevisiae) (UniProt P39001)
T1 sequence: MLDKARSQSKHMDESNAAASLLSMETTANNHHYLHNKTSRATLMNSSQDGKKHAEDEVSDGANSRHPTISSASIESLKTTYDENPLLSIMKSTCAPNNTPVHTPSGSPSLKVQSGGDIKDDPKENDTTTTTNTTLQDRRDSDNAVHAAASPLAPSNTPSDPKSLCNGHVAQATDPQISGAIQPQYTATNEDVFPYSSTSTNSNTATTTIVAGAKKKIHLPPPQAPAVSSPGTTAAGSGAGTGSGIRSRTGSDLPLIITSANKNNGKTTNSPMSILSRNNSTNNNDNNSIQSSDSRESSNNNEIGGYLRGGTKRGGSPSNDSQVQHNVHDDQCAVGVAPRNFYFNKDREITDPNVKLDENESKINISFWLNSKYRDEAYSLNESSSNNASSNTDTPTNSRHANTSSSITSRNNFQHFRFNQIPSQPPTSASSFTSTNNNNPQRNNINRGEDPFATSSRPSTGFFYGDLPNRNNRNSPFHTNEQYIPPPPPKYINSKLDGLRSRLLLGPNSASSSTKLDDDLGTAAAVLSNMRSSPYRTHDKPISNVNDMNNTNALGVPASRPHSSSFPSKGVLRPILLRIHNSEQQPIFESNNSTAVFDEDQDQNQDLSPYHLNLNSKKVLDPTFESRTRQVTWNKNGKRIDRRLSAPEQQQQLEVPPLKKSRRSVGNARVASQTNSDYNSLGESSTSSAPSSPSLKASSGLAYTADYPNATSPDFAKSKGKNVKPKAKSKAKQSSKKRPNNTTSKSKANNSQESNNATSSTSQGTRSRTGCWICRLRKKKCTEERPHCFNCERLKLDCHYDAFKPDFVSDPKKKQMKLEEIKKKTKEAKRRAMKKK
Assay: proximity labelling

Binder	binding
B1	binds
B2	binds
B3	binds
B4	binds
B5	binds
B6	binds

Results are given in words; binding and its absence hold for the method and conditions named. Binding seen in cells or lysates may run through a third protein. A yes stands for co-enrichment or nearness to the bait. Other partners may have been found. Sequences can lack the tags named with a protein.
